Measured values taken from patent EP1298214B1, “Plant thioesterases” (Calgene LLC, priority 1990, dated 1991).
These are yes or no findings as the source states them, for the method shown. Some entries that bind do so weakly or less than the wild type.

The chains behind the UniProt entries cited, without tags or fusion partners. Residues count along the entry.
UniProt P0A6A8, residues 2-78: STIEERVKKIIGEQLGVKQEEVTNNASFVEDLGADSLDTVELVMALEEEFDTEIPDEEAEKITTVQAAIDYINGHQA

Experiments:
[1] = target: Escherichia coli acyl carrier protein coupled to cyanogen bromide-activated Sepharose 4B (Escherichia coli) (UniProt P0A6A8); assay: affinity chromatography on immobilized E. coli ACP, fractions assayed for activity
[2] = target: Escherichia coli acyl carrier protein coupled to cyanogen bromide-activated Sepharose 4B (Escherichia coli) (UniProt P0A6A8); assay: affinity chromatography on E. coli ACP coupled to Sepharose 4B; eluted with a 100-500 mM phosphate gradient

B1: Bay C12-preferring acyl-ACP thioesterase purified from immature Umbellularia californica cotyledons (enzyme)
chain: LEWKPKPKLPQLLDDHFGLHGLVFRRTFAIRSYEVGPDRSTSILAVMNHMQEATLNHAKSVGILGDGFGTTLEMSKRDLMWVVRRTHVAVERYPTWGDTVEVECWIGASGNNGMRRDFLVRDCKTGEILTRCTSLSVLMNTRTRRLSTIPDEVRGEIGPAFIDNVAVKDDEIKKLQKLNDSTADYIQGGLTPRWNDLDVNQHVNNLKYVAWVFETVPDSIFESHHISSFTLEYRRECTRDSVLRSLTTVSGGSSEAGLVCDHLLQLEGGSEVLRARTEWRPKLTDSFRGISVIPAEPRV
binding [1]: binds
binding [2]: binds
